From patent US11767302B2, “Reagents and methods for tetrazine synthesis” (University of Delaware, priority 2020, dated 2023)
Some entries share one result that the patent states for a list of compounds.

Experiment: Tetrazine stability in PBS buffer in ambient light at 25° C.
Assay type: physicochemical
Protocol: Solutions (3 mL) of tetrazine 5b, 5l and 6c (400 μM) were prepared in PBS buffer (pH 7.4) in vials and stored in ambient light at 25° C. Tetrazine concentrations were determined by recording the absorbance at 518 nm (6c) and 520 nm (5b and 5l) in cuvettes in day 0, 1, 3 and 5. A solution of 6a (50 μM) was prepared in PBS buffer (pH 7.4) in vials and stored in ambient light at room temperature. Tetrazine concentration was determined by recording the absorbance at 520 nm in cuvettes at day 0, 1, 3 and 5.

stability after 24 h incubation [%]	SMILES
> 96	C=C(OCC)c1nnc(CCC(=O)OC)nn1 [6c, methyl 3-(6-(1-ethoxyvinyl)-1,2,4,5-tetrazin-3-yl)propanoate]
> 96	COC(=O)CCc1nnc(-c2ccoc2)nn1 [5l, methyl 3-(6-(furan-3-yl)-1,2,4,5-tetrazin-3-yl)propanoate]
> 96	COC(=O)CCc1nnc(-c2ccccc2)nn1 [5b, methyl 3-(6-phenyl-1,2,4,5-tetrazin-3-yl)propanoate]
